Article doi:10.1101/2023.09.14.557850
These are yes or no findings as the source states them, for the method shown. Binding seen in cells or lysates may run through a third protein. Some results given as binding are weak or reduced against the parent protein; the word gives no strength.

Amino acid sequences for entries named in this document (tags omitted). A change or cut given only in a name is not applied to a line headed by its entry.
UniProt P14618: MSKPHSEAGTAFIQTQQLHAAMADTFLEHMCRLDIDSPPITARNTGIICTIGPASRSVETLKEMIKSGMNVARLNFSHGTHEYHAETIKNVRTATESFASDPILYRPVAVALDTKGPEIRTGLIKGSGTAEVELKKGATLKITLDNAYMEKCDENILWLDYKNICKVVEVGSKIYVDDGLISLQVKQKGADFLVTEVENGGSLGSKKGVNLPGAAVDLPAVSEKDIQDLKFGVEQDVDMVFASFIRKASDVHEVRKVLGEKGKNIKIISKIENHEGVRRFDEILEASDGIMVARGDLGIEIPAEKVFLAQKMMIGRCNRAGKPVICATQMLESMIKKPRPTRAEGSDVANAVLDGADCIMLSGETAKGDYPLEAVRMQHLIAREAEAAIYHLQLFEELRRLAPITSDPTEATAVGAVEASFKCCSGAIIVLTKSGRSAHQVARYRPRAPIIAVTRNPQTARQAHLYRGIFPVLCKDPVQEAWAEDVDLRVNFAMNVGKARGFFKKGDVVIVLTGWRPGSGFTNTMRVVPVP
UniProt P52294: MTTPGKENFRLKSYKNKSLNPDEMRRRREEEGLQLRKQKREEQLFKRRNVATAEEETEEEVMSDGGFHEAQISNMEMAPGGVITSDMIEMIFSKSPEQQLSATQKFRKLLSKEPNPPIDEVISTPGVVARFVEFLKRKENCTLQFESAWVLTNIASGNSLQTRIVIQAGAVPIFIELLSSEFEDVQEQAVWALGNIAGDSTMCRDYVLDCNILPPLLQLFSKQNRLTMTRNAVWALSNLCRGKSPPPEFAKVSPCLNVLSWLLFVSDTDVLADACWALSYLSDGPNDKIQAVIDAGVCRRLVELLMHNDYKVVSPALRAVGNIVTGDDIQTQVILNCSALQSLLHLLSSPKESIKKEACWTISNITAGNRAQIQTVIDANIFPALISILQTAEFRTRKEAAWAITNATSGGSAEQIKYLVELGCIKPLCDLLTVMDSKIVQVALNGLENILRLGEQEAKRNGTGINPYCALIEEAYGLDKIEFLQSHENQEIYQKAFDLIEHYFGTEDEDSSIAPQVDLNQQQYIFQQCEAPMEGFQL

Legend:
Flag-PKM2-S333A [1] = target: Flag-PKM2-S333A (UniProt P14618); experiment: cross-linking
Flag-PKM2-WT = Flag-PKM2-WT (UniProt P14618); experiment: co-IP
Flag-PKM2-S333A [2] = target: Flag-PKM2-S333A (UniProt P14618); experiment: co-IP

binding (Flag-PKM2-S333A [1])	binding (Flag-PKM2-WT)	binding (Flag-PKM2-S333A [2])	Substance
binds	–	–	Flag-PKM2-S333A (from UniProt P14618 1-531) (enzyme)
–	binds	binds	importin α5 (from UniProt P52294 1-538)
